Source: PMC11079001
Substitutions are numbered along the chain they refer to. No constants are given. Whether binding was seen depends on the method and setting. Binding seen in cells or lysates may run through a third protein. Some entries that bind do so weakly or less than the wild type. Where a sequence is shown, tags or fusion partners need not be part of it.

The chains behind the UniProt entries cited, without tags or fusion partners.
UniProt P52286: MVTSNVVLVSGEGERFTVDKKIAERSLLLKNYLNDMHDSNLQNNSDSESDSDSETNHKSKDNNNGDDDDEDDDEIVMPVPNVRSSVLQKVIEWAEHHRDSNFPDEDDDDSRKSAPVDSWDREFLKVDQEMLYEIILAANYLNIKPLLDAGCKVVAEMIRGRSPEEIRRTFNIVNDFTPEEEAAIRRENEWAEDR

Legend:
Experiment in all cases: co-IP; 12xMyc-Met30 variants immunoprecipitated on MYC-trap beads from 1 mg native yeast whole cell lysate (Triton X-100 buffer: 50 mM HEPES pH 7.5, 0.2% Triton X-100, 200 mM NaCl), overnight at 4 °C; co-precipitated Skp1 by western blot; cells untreated or treated with 100 µM CdCl2 (time courses); also H2O2 or zinc pre-treatment
[1] = molecular target: T1, 12xMyc-Met30 wild type (S. cerevisiae) (UniProt P39014)
T1 sequence: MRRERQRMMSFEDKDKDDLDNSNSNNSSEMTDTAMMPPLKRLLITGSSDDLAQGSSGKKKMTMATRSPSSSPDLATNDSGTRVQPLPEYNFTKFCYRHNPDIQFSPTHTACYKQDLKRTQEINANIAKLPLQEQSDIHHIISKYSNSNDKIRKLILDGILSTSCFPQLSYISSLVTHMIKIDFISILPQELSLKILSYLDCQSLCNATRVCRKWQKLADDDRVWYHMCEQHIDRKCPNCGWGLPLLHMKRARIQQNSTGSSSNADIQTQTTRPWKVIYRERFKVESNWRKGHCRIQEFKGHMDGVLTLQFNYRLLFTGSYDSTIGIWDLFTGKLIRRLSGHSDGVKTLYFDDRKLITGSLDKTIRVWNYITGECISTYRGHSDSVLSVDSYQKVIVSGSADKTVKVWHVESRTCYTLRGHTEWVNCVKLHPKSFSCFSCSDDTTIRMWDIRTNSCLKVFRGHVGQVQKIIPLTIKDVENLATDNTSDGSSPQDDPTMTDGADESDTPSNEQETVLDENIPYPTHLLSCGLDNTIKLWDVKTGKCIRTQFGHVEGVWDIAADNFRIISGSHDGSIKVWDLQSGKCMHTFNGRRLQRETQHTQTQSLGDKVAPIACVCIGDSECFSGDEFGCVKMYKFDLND

[2] = molecular target: T2, 12xMyc-Met30 ∆113-180 (S. cerevisiae) (UniProt P39014)
T2 sequence: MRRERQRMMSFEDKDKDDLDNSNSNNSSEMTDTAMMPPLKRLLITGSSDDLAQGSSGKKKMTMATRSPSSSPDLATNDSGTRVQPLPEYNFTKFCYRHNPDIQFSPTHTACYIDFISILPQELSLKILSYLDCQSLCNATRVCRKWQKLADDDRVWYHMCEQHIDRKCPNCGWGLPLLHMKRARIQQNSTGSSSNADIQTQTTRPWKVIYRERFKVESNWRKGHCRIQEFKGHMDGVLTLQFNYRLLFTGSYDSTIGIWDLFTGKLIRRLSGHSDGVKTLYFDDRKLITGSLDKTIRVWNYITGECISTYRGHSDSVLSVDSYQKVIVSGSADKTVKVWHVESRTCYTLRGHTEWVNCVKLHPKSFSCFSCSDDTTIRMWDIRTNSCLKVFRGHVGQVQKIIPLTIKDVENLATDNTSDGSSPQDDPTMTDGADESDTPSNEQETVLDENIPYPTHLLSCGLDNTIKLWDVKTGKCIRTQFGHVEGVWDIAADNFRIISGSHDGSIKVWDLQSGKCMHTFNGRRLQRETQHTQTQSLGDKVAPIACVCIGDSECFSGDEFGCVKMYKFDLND

[3] = molecular target: T3, 12xMyc-Met30 C228S (S. cerevisiae) (UniProt P39014)
T3 sequence: T1 sequence with C228S

Measured: binding

Skp1 (from UniProt P52286 1-194)
binds: all assays above
